# According to the supplement of paper PMC10849652:
# Amino acid sequences for entries named in this document (tags omitted). A change or cut given only in a name is not applied to a line headed by its entry.
# UniProt O14787: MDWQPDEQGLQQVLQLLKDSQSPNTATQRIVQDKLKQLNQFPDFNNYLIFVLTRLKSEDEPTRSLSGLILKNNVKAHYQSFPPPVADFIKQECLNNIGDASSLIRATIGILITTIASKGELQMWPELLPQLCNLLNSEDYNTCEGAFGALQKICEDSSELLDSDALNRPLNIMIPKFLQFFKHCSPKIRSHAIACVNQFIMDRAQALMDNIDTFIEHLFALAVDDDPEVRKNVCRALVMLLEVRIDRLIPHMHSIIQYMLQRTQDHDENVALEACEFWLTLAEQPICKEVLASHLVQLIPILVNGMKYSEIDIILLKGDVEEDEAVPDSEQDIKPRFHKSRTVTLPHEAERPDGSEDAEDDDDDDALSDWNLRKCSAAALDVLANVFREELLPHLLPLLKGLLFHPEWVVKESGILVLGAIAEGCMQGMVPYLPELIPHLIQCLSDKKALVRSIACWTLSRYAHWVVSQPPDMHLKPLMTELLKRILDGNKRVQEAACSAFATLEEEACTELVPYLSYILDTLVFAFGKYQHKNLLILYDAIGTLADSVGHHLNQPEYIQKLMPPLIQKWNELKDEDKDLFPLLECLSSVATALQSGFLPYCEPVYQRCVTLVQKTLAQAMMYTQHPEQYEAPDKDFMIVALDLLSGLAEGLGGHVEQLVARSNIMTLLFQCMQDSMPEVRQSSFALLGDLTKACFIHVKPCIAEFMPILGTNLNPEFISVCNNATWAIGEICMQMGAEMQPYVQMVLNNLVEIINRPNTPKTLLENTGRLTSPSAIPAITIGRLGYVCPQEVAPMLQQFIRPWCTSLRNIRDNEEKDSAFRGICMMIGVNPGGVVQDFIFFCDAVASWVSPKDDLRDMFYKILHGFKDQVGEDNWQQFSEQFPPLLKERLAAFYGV
# UniProt Q9H497: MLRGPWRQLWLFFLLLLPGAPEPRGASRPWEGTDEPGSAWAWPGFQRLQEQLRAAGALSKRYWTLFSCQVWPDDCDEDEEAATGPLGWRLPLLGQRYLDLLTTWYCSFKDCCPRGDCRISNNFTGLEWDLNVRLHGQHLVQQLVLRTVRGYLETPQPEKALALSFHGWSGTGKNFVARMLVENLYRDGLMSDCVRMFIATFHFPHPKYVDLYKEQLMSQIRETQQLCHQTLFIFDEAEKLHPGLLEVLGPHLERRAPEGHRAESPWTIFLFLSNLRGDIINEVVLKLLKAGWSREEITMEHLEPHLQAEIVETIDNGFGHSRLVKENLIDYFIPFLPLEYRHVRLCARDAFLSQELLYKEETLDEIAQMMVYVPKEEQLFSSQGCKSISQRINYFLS
# UniProt Q4ZIN3: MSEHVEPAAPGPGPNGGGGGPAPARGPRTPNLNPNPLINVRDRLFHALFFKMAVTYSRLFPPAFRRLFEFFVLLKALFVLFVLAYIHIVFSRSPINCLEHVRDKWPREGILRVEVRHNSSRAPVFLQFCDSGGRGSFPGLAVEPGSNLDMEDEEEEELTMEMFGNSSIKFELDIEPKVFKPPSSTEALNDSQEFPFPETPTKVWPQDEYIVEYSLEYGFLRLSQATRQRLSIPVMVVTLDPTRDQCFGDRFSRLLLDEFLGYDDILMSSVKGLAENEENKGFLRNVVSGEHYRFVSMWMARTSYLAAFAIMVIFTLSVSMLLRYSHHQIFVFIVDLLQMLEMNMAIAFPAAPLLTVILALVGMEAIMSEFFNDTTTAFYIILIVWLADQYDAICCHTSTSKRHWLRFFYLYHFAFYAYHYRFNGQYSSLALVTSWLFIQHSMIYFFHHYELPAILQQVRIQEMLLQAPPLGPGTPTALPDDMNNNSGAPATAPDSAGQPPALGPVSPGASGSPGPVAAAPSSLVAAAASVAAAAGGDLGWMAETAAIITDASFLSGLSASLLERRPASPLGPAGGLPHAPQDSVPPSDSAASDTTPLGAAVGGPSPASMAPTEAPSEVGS
# UniProt Q6PI78: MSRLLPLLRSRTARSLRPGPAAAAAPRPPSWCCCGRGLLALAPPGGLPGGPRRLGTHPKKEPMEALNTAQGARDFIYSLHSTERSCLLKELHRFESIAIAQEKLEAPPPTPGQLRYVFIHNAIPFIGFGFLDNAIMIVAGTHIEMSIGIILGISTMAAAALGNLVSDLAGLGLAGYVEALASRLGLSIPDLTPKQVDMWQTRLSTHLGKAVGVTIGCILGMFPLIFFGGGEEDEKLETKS
# UniProt Q13595: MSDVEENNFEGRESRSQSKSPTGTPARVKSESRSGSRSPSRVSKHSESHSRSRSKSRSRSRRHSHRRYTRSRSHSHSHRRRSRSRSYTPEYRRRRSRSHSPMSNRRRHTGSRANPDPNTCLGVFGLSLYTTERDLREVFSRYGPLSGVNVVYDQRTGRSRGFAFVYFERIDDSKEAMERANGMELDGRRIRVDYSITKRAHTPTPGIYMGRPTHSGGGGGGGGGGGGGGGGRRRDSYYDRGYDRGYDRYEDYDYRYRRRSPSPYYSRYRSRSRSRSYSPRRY
# UniProt Q9NQ34: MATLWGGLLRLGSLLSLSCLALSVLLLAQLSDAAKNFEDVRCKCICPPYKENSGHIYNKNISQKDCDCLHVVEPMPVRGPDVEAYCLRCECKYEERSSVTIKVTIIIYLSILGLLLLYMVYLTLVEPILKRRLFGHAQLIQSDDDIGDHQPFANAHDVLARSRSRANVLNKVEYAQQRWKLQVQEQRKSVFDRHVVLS
# UniProt O43399: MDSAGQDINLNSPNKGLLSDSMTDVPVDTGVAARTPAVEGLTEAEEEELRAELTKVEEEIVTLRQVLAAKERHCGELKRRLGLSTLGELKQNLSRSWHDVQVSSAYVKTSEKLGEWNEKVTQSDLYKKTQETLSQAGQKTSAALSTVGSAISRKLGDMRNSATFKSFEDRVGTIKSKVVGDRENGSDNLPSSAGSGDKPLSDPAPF
# This is one part of the list.
# Columns and labels:
# Assay in all cases: log2 fold change, soluble protein after heating vs DMSO (PISA); higher = thermal stabilisation; K562 lysate, 10 uM; active = over 0.2 and 3.5 SD of the protein, either way, in both replicates (recomputed)
# erlotinib = compound: C#Cc1cccc(Nc2ncnc3cc(OCCOC)c(OCCOC)cc23)c1 [erlotinib]
# Outline: (§1)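 Soluble protein was defined as the supernatant remaining after 21,000xg for 90 min, following pooling of heated aliquots and adjustment to 0.5% NP-40 at 4°C. Before that, crude K562 extract at 1 mg/mL protein in PBS pH 7.4 with 1 mM MgCl2 was treated with 10 μM compound for 30 min and heated for 3 min across 48°C-58°C. Quantification used TMTpro 16plex LC-MS/MS with channel sums equalised, and values are log-two fold changes in thermal stability relative to solvent controls from duplicates.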
# [1] = compound: C/C(=N\NC(=O)C1=CC(=CC=C1)S(=O)(=O)N2CCOCC2)/C3=C(C=CC(=C3)Cl)O
# Outline: as §1
# [2] = compound: C1=CC(=CC=C1C2=NC3=C(N2)C=C(C=C3)C(=O)N)OC4=CC=C(C=C4)Cl
# Outline: as §1
# [3] = compound: C1=CC2=C(C=CC(=C2)/C=C\3/C(=O)NC(=NCC4=CC=CS4)S3)N=C1
# Outline: as §1
# [4] = compound: C1=CC2=NC=CN=C2C=C1/C=C/3\C(=O)NC(=O)S3
# Outline: as §1
# [5] = compound: C1=CC=C(C=C1)C2=NC(=C(N2)C3=CC=NC=C3)C4=CC(=C(C=C4)Cl)O
# Outline: as §1
# [6] = compound: C1=CC=C2C(=C1)C3=NNC4=CC=CC(=C43)C2=O
# Outline: as §1
# [7] = compound: C1CCN(C1)C(=O)NC2=CC=CC(=C2)NC3=NC=C(C(=N3)NCCC4=CN=CN4)Br
# Outline: as §1
# [8] = compound: C1CN(CCC1(CC2=CC=C(C=C2)Cl)N)C3=NC=NC4=C3C=CN4
# Outline: as §1
# IRAK-1-4 Inhibitor I = compound: C1COCCN1CCN2C3=CC=CC=C3N=C2NC(=O)C4=CC(=CC=C4)[N+](=O)[O-] [IRAK-1-4 Inhibitor I]
# Outline: as §1
# ibrutinib = compound: C=CC(=O)N1CCC[C@@H](n2nc(-c3ccc(Oc4ccccc4)cc3)c3c(N)ncnc32)C1 [ibrutinib]
# Outline: as §1
# [9] = compound: CC(=O)c1cnc2ccc(-c3cc(Cl)c(O)c(Cl)c3)nc2c1N[C@H]1CC[C@H](CN(C)C)CC1
# Outline: as §1
# ralimetinib = compound: CC(C)(C)Cn1c(N)nc2ccc(-c3[nH]c(C(C)(C)C)nc3-c3ccc(F)cc3)nc21 [ralimetinib]
# Outline: as §1
# [10] = compound: CC(C)(O)CC(=O)NCCn1ccc2ncnc(Nc3ccc(Oc4cccc(C(F)(F)F)c4)c(Cl)c3)c21
# Outline: as §1
# [11] = compound: CC(C)C1=C2N=C(C=C(N2N=C1)NCC3=CC=CC=C3)NCCCCCCN
# Outline: as §1
# [12] = compound: CC1=C(C(CC(=O)N1)C2=CC=C(C=C2)C(F)(F)F)C(=O)NC3=C(C=C4C(=C3)C=NN4)F
# Outline: as §1
# [13] = compound: CC1=C(C2=C(C=C1)C(=O)C3=CC=CC=C3N2CCCN)C
# Outline: as §1
# [14] = compound: CC1=C(C=C(C=C1)NC(=O)C2=CC(=CC=C2)C(C)(C)C#N)NC3=CC4=C(C=C3)N=CN(C4=O)C
# Outline: as §1
# [15] = compound: CC1=C(C=C(C=C1)NC(=O)C2=CC(=CC=C2)N(C)C)NC(=O)C3=CC=C(C=C3)O
# Outline: as §1
# [16] = compound: CC1=CC=C(C=C1)SC2=C3C=C(SC3=CN=C2)C(=O)N
# Outline: as §1
Target,log2 fold change (erlotinib),log2 fold change [1],log2 fold change [2],log2 fold change [3],log2 fold change [4],log2 fold change [5],log2 fold change [6],log2 fold change [7],log2 fold change [8],log2 fold change (IRAK-1-4 Inhibitor I),log2 fold change (ibrutinib),log2 fold change [9],log2 fold change (ralimetinib),log2 fold change [10],log2 fold change [11],log2 fold change [12],log2 fold change [13],log2 fold change [14],log2 fold change [15],log2 fold change [16]
TNPO2 (UniProt O14787),inactive: 0.033,inactive: 0.014,inactive: -0.008,inactive: -0.001,inactive: -0.019,inactive: 0.008,inactive: -0.006,inactive: 0.014,inactive: 0.024,inactive: 0.05,inactive: -0.011,inactive: 0.011,inactive: 0.003,inactive: -0.043,inactive: -0.053,inactive: 0.002,inactive: -0.034,inactive: -0.014,inactive: 0.026,inactive: 0
TOR3A (UniProt Q9H497),inactive: 0,inactive: 0.002,inactive: 0.006,inactive: -0.008,inactive: -0.01,inactive: -0.012,inactive: -0.087,inactive: 0.039,inactive: 0.013,inactive: 0.021,inactive: 0.008,inactive: 0.023,inactive: 0.002,inactive: -0.017,inactive: -0.001,inactive: 0.018,inactive: -0.022,inactive: -0.036,inactive: 0.018,active: 0.365
TMEM259 (UniProt Q4ZIN3),inactive: 0.127,inactive: -0.127,inactive: -0.05,inactive: -0.059,inactive: -0.01,inactive: 0.016,inactive: 0.019,inactive: -0.053,inactive: 0.152,inactive: -0.007,inactive: -0.024,inactive: -0.076,inactive: 0.035,inactive: -0.007,inactive: 0.111,inactive: -0.003,inactive: -0.048,inactive: -0.004,inactive: 0.007,inactive: 0.069
TPRKB (UniProt Q9Y3C4),inactive: -0.029,inactive: -0.008,inactive: 0.024,inactive: -0.091,inactive: -0.156,inactive: -0.015,inactive: 0.096,inactive: -0.018,inactive: 0.051,inactive: 0.02,inactive: -0.063,inactive: -0.044,inactive: -0.069,inactive: 0.001,inactive: -0.021,inactive: -0.075,inactive: -0.001,inactive: -0.03,inactive: -0.034,inactive: -0.012
TMEM65 (UniProt Q6PI78),inactive: -0.091,inactive: -0.073,inactive: -0.028,inactive: -0.081,inactive: 0.029,inactive: 0.011,inactive: 0.103,inactive: -0.01,inactive: 0.103,inactive: 0.13,inactive: -0.07,inactive: -0.077,inactive: -0.035,inactive: -0.134,inactive: -0.039,inactive: 0.064,inactive: -0.017,inactive: 0.064,inactive: -0.037,inactive: -0.035
TRA2A (UniProt Q13595),inactive: -0.164,inactive: -0.261,inactive: -0.092,inactive: -0.03,inactive: -0.137,inactive: 0.038,inactive: -0.024,inactive: 0.083,inactive: -0.234,inactive: -0.102,inactive: 0.127,inactive: -0.018,inactive: -0.079,inactive: -0.013,inactive: 0.21,inactive: -0.027,inactive: 0.039,inactive: 0.056,inactive: 0.019,inactive: -0.007
TMEM9B (UniProt Q9NQ34),inactive: -0.119,inactive: -0.031,inactive: -0.159,inactive: -0.057,inactive: 0.025,inactive: -0.021,inactive: -0.088,inactive: -0.048,inactive: 0,inactive: 0.103,inactive: 0.095,inactive: -0.018,inactive: -0.035,inactive: -0.084,inactive: 0.101,inactive: 0.022,inactive: 0.027,inactive: 0.025,inactive: -0.14,inactive: 0.023
TPD52L2 isoform 7 (UniProt O43399),inactive: -0.044,inactive: -0.028,inactive: 0.085,inactive: 0.015,inactive: 0,inactive: 0.017,inactive: 0.036,inactive: 0.029,inactive: -0.004,inactive: -0.031,inactive: -0.016,inactive: 0.017,inactive: -0.013,inactive: 0.01,inactive: -0.013,inactive: 0.023,inactive: -0.024,inactive: 0.007,inactive: -0.006,inactive: -0.001
